Laboratory results: PubChem BioAssay AID1487 (National Center for Advancing Translational Sciences (NCATS), 2009)
This is one part of the list. These are further read-outs of the screen, such as a control signal, another cell line or another target. No call is given for them. The list favours compounds with an active or inconclusive main result. Potencies come from curve fits of mixed quality, noted in brackets.

Test: qHTS Assay for Modulators of Lamin A Splicing
Details: HeLa LMNA splicing GFP/RFP minigene ratio, 48 h
Outline: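 Read-out is the ratio of GFP to DsRed2 object intensity, acquired by 488 nm laser-scanning cytometry on HeLa lamin A-EGFP minigene reporter cells. Compound incubation 48 hrs at 37 °C in Opti-MEM with 2% FBS; DMSO 0.5% final.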

[1] = measured here: RFP viability control channel
[2] = measured here: GFP splicing reporter channel

| SMILES | AC50 [1] | AC50 [2] |
| --- | --- | --- |
| O=[N+]([O-])c1ccc(NCCCNS(=O)(=O)c2ccccc2)c(Cl)c1 | 7.94 µM [rising, partial curve] |  |
| CCOc1ccccc1NC1=C(Cl)C(=O)N(c2ccc(OC)cc2)C1=O | 22.4 µM [rising, single point] |  |
| CC[C@@]1(O)C(=O)OCc2c1cc1n(c2=O)Cc2cc3c(CN(C)C)c(O)ccc3nc2-1 | 0.251 µM [rising, full curve] | 0.794 µM [falling, single point] |
| CC(=O)c1c(C)[nH]c(C(=O)OCc2nnc(-c3ccccc3)o2)c1C | 17.8 µM [rising, single point] | 11.2 µM [rising, single point] |
| CCOc1ccccc1NS(=O)(=O)c1cc2[nH]c(=O)c(=O)[nH]c2cc1C | 0.02 µM [falling, partial curve, poor fit] | 0.0224 µM [falling, partial curve, poor fit] |
| CCCC/C(C)=N/NC(=O)CN(c1ccc(Br)cc1)S(=O)(=O)c1ccccc1 |  | 35.5 µM [rising, single point] |
| COc1ccc(N=Cc2c(O)[nH]c3ccccc23)cc1OC | 20 µM [rising, partial curve, poor fit] |  |
| CCOC(=O)C1=C(CC)Nc2ccccc2N=C1NC(=O)Nc1ccc(Cl)c(Cl)c1 | 35.5 µM [rising, single point] |  |
| COc1ccc(NS(=O)(=O)c2ccc(NC(=S)NC(=O)/C=C/c3ccc(C)cc3)cc2)nn1 | 20 µM [rising, single point] |  |
| Cc1ccc(C(=O)CSC2=C(C#N)C(c3ccco3)CC(=O)N2)c(C)c1 (stereo unspecified) | 20 µM [rising, single point] | 11.2 µM [rising, single point] |
| CCOc1cc(/C=C2\SC(=Nc3ccccc3)N(c3ccccc3)C2=O)ccc1OCC(=O)O | 8.91 µM [rising, partial curve] | 11.2 µM [rising, partial curve] |
| CCOc1c(OC(C)=O)ccc(/C=C/c2ccc3cccc(OC)c3n2)c1[N+](=O)[O-] | 14.1 µM [rising, partial curve, poor fit] |  |
| CC(C)CNC(=O)C1CCN(Cc2ccc(OCc3ccccc3)cc2)CC1 | 35.5 µM [rising, single point] | 35.5 µM [rising, single point] |
| CCc1ccc(/C=C2/C(=O)N(C)C(=S)N2CC(=O)OC)s1 |  | 35.5 µM [falling, partial curve, poor fit] |
| O=C(Nc1cccc(Cl)c1)N1CC2CCCN2c2ccccc21 (stereo unspecified) | 35.5 µM [rising, single point] | 31.6 µM [rising, single point] |
| Cc1cc(C)c(OCC(=O)N/N=C/c2ccc3c(c2)OCO3)c(C)c1 | 3.55 µM [rising, full curve] |  |
| CCCC1/C(=N/O)CC(c2ccccc2)NC1c1ccccc1 (stereo unspecified) | 5.01 µM [falling, partial curve] | 10 µM [falling, partial curve] |
| CCCOc1c(OC)cccc1C1CC(=O)Nc2cc3c(cc21)OCCO3 (stereo unspecified) | 35.5 µM [falling, single point] | 35.5 µM [falling, single point] |

Some of the entries above, set out differently.
CCOC(=O)C1=C(CC)Nc2ccccc2N=C1NC(=O)Nc1ccc(Cl)c(Cl)c1
  AC50 [1]: 35.5 µM [rising, single point]
COc1ccc(NS(=O)(=O)c2ccc(NC(=S)NC(=O)/C=C/c3ccc(C)cc3)cc2)nn1
  AC50 [1]: 20 µM [rising, single point]

Remaining list, next part:

| SMILES | AC50 [1] | AC50 [2] |
| --- | --- | --- |
| COc1ccc(CNC(=O)c2ccc3c(c2)nc2n3CCCCC2)cc1 |  | 0.631 µM [rising, single point] |
| CCCCc1nnc(NC(=O)C2CC(=O)N(c3ccc(C)cc3)C2)s1 (stereo unspecified) |  | 11.2 µM [rising, partial curve, poor fit] |
| CC(C)c1ccc(/C=N/N2CCCCC2)cc1 |  | 14.1 µM [falling, single point] |
| CCc1c(C)nc2c(C#N)c[nH]n2c1=O | 3.16 µM [rising, partial curve, poor fit] |  |
| O=S(=O)(NCC(c1cccs1)S(=O)(=O)c1ccccc1)c1ccccc1 (stereo unspecified) | 1.58 µM [rising, full curve] |  |
| O=c1oc(Nc2ccc(F)cc2)nc2ccccc12 | 0.447 µM [falling, partial curve, poor fit] |  |
| Nc1nnc(-c2cccc(Cl)c2Cl)c(N)n1 |  | 3.16 µM [rising, partial curve] |
| COc1ccc(/C=N/S(=O)(=O)CCc2ccccc2)c(OC)c1 |  | 8.91 µM [falling, partial curve] |
| CCOC(=O)n1c(=O)n(Cc2cccc(F)c2)c2ccccc21 | 0.708 µM [falling, full curve] | 20 µM [falling, partial curve, poor fit] |
| COc1ccccc1CCn1cnc2c3cc(C)ccc3n(C)c2c1=O | 14.1 µM [rising, partial curve] | 5.62 µM [rising, partial curve] |
| COC(=O)c1sc2ncccc2c1OCc1cccc(Cl)c1 | 35.5 µM [rising, single point] | 1.78 µM [rising, partial curve, poor fit] |
| COc1ccc(-c2csc(NC(=O)c3ccco3)n2)cc1 | 22.4 µM [rising, single point] |  |
| CCOc1ccccc1CNC(=O)c1ccc(-n2c(C)cc3c2CCC(C)C3)cc1 (stereo unspecified) | 15.8 µM [rising, single point] |  |
| COc1ccc2[nH]c(=O)c(CN(Cc3ccccc3)C(=S)NCC3CCCO3)cc2c1 (stereo unspecified) | 0.891 µM [falling, full curve, poor fit] | 0.891 µM [falling, full curve, poor fit] |
| Oc1cc(O)cc(/C=C/c2ccc(O)c(O)c2)c1 | 0.0562 µM [falling, full curve, poor fit] | 12.6 µM [falling, partial curve] |
| O=C(/C=C/c1cccs1)N1CCN(c2ccc(O)cc2)CC1 | 14.1 µM [rising, partial curve] |  |
| COc1ccc(CCNC(=O)c2c[nH]c3ccccc3c2=O)cc1OC | 35.5 µM [rising, single point] |  |
| O=S(Cc1ccccc1)CC(O)(c1ccc(Cl)cc1)c1ccc(Cl)cc1 (stereo unspecified) | 0.631 µM [falling, full curve] | 0.708 µM [falling, partial curve, poor fit] |
